PubChem BioAssay AID493246, Drosophila RNAi Screening Center – 2011

Test: 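Genes fly cells need to grow and stay alive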 (primary screen)
Cells: Drosophila Kc and S2R+ cells
Reagent: long dsRNA against Drosophila genes
Read-out: 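Raw, unnormalised count of remaining cells in each well; per-plate z-scores of cell number underlie the calls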
Direction: Kc cell number and S2R+ cell number: higher = more cells remaining
Rule for the call: 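Counted as a hit if cell number falls by a z-score of at least 3 within its plate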
The deposit covers about 21,000 reagents; below is an unselected part of those with a known target gene and a result. Of all reagents, 429 (2%) are marked active. 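Values are raw and not normalised between plates; calls rest on per-plate z-scores that were not deposited.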 The record does not give: the amount of reagent, the time to read-out.

gene	dsRNA	Kc cell number, rep 1	Kc cell number, rep 2	S2R+ cell number, rep 1	S2R+ cell number, rep 2	activity call
Nlp	DRSC16759	4.75e5		7.08e5		inactive
pad	DRSC14227	1.24e6	1.24e6	1.13e6	1.22e6	inactive
Tgt	DRSC00672	1.35e6	1.40e6	1.17e6	1.21e6	inactive
Est-P	DRSC11163	1.29e6	1.21e6	1.33e6	1.39e6	inactive
spdo	DRSC13988	1.48e6	1.67e6	1.05e6	1.11e6	inactive
Tap42	DRSC02967	1.57e6	1.76e6	1.16e6	1.21e6	inactive
Kaz	DRSC14637	1.63e6	1.56e6	1.03e6	1.12e6	inactive
CG32563	DRSC19934	1.53e6	1.57e6	1.16e6	1.27e6	inactive
l(3)07882	DRSC15882	1.47e6	1.60e6	1.15e6	1.22e6	inactive
CG7381	DRSC16238	1.54e6	1.62e6	1.35e6	1.43e6	inactive
CG6966	DRSC16156	1.19e6	1.19e6	1.16e6	1.23e6	inactive
CG1314	DRSC20495	1.47e6	1.52e6	1.05e6	1.15e6	inactive
dom	DRSC04558	1.05e6	1.16e6	8.04e5	8.24e5	inactive
dom	DRSC04559	1.33e6	1.47e6	1.11e6	2.77e5	inactive
milt	DRSC00965	1.52e6	1.69e6	1.18e6	1.33e6	inactive
milt	DRSC00966	1.61e6	1.74e6	1.19e6	1.42e6	inactive
milt	DRSC02281	1.33e6	1.41e6	5.48e5	7.30e5	inactive
CG15577	DRSC18065	1.66e6	1.72e6	1.08e6	1.18e6	inactive
Fit2	DRSC10908	1.46e6	1.45e6	1.26e6	1.27e6	inactive
Nlg2	DRSC03578	1.50e6	1.36e6	1.13e6	1.23e6	inactive
jagn	DRSC12152	1.51e6	1.52e6	1.19e6	1.31e6	inactive
gprs	DRSC06761	1.56e6	1.61e6	1.22e6	1.33e6	inactive
CG15237	DRSC04971	1.66e6	1.70e6	1.26e6	1.37e6	inactive
Hand	DRSC02656	1.53e6	1.52e6	1.15e6	1.30e6	inactive
CG2310	DRSC15438	1.62e6	1.73e6	1.05e6	1.12e6	inactive
CG9289	DRSC03187	1.50e6	1.55e6	1.28e6	1.49e6	inactive
CG4572	DRSC15603	1.62e6	1.70e6	1.28e6	1.34e6	inactive
Gyc32E	DRSC01154	1.56e6	1.51e6	1.11e6	1.45e6	inactive
CG14380	DRSC14840	1.37e6	1.41e6	1.05e6	1.15e6	inactive
Ptp61F	DRSC08683	1.24e6	1.22e6	7.91e5	9.64e5	inactive
CG3699	DRSC18171	1.71e6	1.71e6	1.08e6	1.22e6	inactive
CG3699	DRSC18642	1.71e6	1.81e6	1.09e6	1.23e6	inactive
Cyp49a1	DRSC06737	1.62e6	1.73e6	1.33e6	1.46e6	inactive
Cyp49a1	DRSC07367	1.55e6	1.57e6	1.29e6	1.35e6	inactive
CG6900 (retired record)	DRSC20018	1.52e6	1.47e6	1.04e6	1.18e6	inactive
CG2336	DRSC12581	1.36e6	1.51e6	1.27e6	1.37e6	inactive
CG34214	DRSC04490	1.40e6	1.58e6	1.17e6	1.20e6	inactive
Taf5	DRSC07562	1.63e6	1.59e6	1.08e6	1.10e6	inactive
Klp64D	DRSC11204	1.35e6	1.58e6	1.16e6	1.21e6	inactive
CG31689	DRSC00734	1.64e6	1.66e6	1.12e6	1.30e6	inactive
CycB	DRSC04605	1.34e6	1.42e6	9.26e5	1.05e6	inactive
CG18609	DRSC06775	1.61e6	1.68e6	1.26e6	1.40e6	inactive
nAChRalpha7	DRSC20078	1.50e6	1.52e6	1.04e6	1.21e6	inactive
nAChRalpha7	DRSC20081	1.50e6	1.54e6	1.11e6	1.14e6	inactive
CG33259	DRSC10854	1.48e6	1.66e6	1.32e6	1.38e6	inactive
wus	DRSC20278	1.47e6	1.53e6	1.04e6	1.23e6	inactive
CG9518	DRSC20194	1.46e6	1.45e6	1.08e6	1.18e6	inactive
AANATL2	DRSC03227	1.62e6	1.60e6	1.24e6	1.43e6	inactive
CG32755	DRSC18397	1.48e6	1.45e6	1.05e6	1.17e6	inactive
Ir10a	DRSC18891	1.36e6	1.52e6	1.09e6	1.11e6	inactive
Ir10a	DRSC19478	1.61e6	1.53e6	1.13e6	1.23e6	inactive
Ir10a	DRSC19479	1.57e6	1.52e6	1.11e6	1.28e6	inactive
CG5445	DRSC19943	1.53e6	1.51e6	1.13e6	1.21e6	inactive
HisT	DRSC05051	1.45e6	1.52e6	9.81e5	1.03e6	inactive
HisT	DRSC05052	1.42e6	1.36e6	8.92e5	1.04e6	inactive
HisT	DRSC06405	1.25e6	1.38e6	8.02e5	8.42e5	inactive
CG6472	DRSC06989	1.47e6	1.53e6	1.10e6	1.23e6	inactive
zetaCOP	DRSC11412	1.59e6	1.61e6	8.80e5	1.01e6	inactive
cv-2	DRSC03861	6.16e5		8.99e5		inactive
cv-2	DRSC04261	1.63e6	1.66e6	1.27e6	2.91e5	inactive

Part of the list above, showing only “Kc cell number, rep 1”.
milt [DRSC00965]	1.52e6
milt [DRSC00966]	1.61e6
milt [DRSC02281]	1.33e6
CG15577 [DRSC18065]	1.66e6
